{"sequences": {"note": "Amino acid sequences for entries named in this document (tags omitted). A change or cut given only in a name is not applied to a line headed by its entry.", "UniProt Q12849": "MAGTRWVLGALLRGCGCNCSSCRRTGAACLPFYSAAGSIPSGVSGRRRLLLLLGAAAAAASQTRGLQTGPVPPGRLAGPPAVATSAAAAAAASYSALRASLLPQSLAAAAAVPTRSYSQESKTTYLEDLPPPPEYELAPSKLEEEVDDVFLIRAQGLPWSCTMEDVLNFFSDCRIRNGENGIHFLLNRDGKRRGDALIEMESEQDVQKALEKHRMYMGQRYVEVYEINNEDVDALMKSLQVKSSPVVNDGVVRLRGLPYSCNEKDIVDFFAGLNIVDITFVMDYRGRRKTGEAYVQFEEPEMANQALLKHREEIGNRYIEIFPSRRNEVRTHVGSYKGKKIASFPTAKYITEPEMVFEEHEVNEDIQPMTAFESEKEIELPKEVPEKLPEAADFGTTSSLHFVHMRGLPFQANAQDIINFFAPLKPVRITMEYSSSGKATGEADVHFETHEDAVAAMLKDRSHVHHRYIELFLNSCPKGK", "UniProt Q04656": "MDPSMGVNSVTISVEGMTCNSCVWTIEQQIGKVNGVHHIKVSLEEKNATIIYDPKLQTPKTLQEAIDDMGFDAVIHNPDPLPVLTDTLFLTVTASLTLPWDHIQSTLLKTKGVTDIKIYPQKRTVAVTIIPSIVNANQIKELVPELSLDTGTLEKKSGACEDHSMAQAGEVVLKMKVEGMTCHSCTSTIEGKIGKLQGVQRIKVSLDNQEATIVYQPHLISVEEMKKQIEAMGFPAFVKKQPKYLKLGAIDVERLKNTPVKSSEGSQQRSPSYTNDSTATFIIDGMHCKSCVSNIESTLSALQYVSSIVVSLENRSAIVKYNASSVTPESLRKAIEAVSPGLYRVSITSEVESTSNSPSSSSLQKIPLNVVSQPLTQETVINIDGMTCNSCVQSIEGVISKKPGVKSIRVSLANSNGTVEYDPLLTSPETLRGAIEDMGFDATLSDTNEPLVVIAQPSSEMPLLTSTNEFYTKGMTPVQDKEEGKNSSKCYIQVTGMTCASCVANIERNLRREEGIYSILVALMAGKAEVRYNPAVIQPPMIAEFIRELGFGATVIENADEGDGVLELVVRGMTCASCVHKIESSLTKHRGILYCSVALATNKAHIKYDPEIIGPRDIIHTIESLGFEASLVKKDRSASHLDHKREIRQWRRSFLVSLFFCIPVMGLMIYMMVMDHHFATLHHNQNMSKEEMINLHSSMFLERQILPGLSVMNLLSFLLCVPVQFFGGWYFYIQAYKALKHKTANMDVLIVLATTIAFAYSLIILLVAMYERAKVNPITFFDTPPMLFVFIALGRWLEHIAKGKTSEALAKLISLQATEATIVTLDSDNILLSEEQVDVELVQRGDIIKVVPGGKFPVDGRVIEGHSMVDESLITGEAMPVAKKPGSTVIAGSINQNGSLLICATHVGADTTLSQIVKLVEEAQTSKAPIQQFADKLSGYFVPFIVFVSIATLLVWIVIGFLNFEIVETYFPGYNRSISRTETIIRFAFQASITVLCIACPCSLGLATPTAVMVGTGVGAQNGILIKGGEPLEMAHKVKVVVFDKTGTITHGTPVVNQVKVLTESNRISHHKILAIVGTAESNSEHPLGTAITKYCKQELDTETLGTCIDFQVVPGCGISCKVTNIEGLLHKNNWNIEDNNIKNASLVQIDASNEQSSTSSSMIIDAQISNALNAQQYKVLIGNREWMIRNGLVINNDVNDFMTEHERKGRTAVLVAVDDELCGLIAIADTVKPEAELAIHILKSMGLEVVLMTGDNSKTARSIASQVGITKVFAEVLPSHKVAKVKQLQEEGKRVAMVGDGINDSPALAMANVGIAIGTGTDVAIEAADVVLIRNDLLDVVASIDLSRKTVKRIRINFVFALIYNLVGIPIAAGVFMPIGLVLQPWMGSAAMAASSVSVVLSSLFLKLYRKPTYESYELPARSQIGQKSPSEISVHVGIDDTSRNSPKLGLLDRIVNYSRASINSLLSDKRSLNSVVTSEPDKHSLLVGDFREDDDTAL", "UniProt Q04724": "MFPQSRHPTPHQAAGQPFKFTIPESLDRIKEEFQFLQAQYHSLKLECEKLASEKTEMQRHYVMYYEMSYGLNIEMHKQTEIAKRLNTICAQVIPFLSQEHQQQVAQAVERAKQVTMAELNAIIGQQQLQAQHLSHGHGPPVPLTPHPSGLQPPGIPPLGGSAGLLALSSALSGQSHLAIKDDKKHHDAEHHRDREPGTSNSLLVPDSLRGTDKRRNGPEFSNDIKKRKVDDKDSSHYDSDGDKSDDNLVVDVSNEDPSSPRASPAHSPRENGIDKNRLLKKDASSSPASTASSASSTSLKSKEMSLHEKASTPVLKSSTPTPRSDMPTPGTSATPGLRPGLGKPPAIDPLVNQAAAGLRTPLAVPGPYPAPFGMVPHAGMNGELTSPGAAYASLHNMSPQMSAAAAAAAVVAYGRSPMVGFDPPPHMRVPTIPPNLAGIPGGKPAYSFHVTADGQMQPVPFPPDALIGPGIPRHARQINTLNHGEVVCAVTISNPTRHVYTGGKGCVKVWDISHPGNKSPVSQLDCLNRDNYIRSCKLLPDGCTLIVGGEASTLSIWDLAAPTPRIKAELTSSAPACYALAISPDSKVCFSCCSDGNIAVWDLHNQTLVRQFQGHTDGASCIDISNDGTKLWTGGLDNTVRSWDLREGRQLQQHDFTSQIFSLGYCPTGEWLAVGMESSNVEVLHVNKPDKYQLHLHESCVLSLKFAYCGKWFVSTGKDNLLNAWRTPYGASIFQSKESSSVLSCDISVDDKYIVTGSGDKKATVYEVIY", "UniProt Q06323": "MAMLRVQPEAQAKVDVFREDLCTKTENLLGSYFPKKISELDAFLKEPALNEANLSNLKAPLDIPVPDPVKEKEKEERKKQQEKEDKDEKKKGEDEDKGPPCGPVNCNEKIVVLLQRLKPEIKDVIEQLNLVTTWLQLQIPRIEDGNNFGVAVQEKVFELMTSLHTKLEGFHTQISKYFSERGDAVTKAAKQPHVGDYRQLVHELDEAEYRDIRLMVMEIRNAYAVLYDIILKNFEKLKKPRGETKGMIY", "UniProt Q03135": "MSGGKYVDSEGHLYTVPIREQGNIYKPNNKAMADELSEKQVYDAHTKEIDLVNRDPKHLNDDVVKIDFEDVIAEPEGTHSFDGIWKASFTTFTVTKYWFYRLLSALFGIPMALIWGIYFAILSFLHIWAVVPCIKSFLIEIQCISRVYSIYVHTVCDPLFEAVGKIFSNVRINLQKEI", "UniProt Q00722, whole entry": "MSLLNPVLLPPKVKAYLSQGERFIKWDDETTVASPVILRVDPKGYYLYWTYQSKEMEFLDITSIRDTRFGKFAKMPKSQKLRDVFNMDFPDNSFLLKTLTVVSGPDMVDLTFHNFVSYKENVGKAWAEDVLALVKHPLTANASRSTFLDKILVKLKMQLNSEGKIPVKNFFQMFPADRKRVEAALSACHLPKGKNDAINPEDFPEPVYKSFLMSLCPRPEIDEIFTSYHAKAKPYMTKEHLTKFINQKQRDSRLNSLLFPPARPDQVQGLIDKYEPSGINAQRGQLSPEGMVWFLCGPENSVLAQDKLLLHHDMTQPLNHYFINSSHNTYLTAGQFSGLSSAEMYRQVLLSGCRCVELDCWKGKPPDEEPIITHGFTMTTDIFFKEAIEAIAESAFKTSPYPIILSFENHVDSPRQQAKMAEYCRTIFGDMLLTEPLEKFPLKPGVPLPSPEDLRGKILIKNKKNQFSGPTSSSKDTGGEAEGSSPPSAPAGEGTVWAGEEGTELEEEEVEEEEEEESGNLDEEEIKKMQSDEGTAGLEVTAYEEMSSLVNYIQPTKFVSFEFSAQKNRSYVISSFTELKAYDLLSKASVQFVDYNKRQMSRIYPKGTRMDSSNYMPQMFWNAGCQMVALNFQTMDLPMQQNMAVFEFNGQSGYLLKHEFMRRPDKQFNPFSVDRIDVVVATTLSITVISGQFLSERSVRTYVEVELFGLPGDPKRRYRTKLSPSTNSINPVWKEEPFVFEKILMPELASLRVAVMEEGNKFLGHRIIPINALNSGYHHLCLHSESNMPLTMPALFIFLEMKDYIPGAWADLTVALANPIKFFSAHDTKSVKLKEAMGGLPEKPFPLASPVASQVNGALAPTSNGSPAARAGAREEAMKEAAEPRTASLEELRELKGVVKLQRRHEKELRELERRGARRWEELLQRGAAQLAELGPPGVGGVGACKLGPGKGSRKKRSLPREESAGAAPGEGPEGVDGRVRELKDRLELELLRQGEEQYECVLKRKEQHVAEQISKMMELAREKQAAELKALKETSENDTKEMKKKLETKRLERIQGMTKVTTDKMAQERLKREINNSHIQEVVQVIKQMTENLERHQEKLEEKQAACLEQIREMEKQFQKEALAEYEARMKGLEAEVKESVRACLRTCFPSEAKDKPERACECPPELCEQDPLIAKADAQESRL", "UniProt Q01433": "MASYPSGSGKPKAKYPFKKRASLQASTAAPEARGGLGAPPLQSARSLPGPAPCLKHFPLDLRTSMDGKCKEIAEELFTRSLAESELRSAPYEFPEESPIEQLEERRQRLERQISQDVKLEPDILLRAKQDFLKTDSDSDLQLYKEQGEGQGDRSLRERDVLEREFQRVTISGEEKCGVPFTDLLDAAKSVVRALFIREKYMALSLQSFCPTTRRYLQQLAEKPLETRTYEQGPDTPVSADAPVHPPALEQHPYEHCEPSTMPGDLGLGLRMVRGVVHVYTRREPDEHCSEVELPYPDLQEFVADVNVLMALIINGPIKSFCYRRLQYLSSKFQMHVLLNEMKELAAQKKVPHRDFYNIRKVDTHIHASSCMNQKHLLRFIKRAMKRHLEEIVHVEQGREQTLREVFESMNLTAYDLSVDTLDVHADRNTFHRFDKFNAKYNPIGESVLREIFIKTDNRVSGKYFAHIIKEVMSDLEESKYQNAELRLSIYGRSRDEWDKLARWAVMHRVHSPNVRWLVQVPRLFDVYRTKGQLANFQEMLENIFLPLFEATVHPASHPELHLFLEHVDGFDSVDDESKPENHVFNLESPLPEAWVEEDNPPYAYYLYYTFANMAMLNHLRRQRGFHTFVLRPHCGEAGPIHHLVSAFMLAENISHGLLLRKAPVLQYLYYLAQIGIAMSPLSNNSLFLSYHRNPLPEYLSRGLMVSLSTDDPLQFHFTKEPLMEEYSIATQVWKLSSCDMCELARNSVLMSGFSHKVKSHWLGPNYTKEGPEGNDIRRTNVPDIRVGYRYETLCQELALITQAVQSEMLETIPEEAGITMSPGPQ", "UniProt Q02241": "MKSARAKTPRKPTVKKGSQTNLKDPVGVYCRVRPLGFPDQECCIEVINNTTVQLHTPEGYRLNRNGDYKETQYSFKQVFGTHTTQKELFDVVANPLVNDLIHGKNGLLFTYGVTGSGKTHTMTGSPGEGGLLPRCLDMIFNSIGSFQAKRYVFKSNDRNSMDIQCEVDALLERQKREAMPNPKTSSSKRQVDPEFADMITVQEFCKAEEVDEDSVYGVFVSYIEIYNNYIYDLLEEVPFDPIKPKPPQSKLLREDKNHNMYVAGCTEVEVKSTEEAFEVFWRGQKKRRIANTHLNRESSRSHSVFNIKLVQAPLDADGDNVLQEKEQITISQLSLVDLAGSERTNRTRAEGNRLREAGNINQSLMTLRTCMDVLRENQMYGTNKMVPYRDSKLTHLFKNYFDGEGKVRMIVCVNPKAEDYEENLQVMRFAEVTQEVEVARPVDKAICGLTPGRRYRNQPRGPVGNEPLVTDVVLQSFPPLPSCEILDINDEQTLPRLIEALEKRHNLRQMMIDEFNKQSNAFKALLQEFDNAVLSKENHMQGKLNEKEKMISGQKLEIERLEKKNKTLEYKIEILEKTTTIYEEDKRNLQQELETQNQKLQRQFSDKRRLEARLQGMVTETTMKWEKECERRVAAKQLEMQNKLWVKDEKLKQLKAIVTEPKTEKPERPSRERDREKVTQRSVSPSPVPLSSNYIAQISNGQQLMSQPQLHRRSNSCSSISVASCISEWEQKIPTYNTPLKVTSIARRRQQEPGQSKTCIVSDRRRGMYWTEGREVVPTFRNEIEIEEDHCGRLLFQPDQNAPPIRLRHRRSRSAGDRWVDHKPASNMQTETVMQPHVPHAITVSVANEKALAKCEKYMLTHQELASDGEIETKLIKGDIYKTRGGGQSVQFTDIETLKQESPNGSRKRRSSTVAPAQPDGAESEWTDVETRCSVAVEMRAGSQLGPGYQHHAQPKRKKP"}, "source": "the supplement of paper PMC12819154", "about": "“High-throughput peptide-centric local stability assay extends protein–ligand identification to membrane proteins, tissues and bacteria” (Nature Structural & Molecular Biology, 2025)", "note": "Some of the results follow. Most values lie at the level of the controls, where differences are scatter.", "data": [{"compound": "CN[C@@H]1C[C@H]2O[C@@](C)([C@@H]1OC)n1c3ccccc3c3c4c(c5c6ccccc6n2c5c31)C(=O)NC4 [staurosporine]", "assay": "log2 fold change of tryptic peptide abundance, ligand vs vehicle (limited proteolysis) (log2 ratio); higher = more trypsin-susceptible (destabilized)", "details": "ligand concentration: 20 uM; sample: K562 cleared lysate; digestion: 4 min, 22 C (HT-PELSA RT4min, Orbitrap Astral)", "values": [{"target": "GRSF1 (peptide sequence: YIEIFPSR, peptide start residue: 318) (UniProt Q12849)", "log2 fold change": -0.171}, {"target": "LAMTOR4 (peptide sequence: TSALTQGLER, peptide start residue: 2) (UniProt Q0VGL1)", "log2 fold change": -0.0262}, {"target": "ATP7A (peptide sequence: ASINSLLSDKR, peptide start residue: 1462) (UniProt Q04656)", "log2 fold change": 0.737}, {"target": "TLE1 (peptide sequence: SPMVGFDPPPHMR, peptide start residue: 416) (UniProt Q04724)", "log2 fold change": -0.0618}, {"target": "PSME1 (peptide sequence: QPHVGDYR, peptide start residue: 191) (UniProt Q06323)", "log2 fold change": 0.238}, {"target": "ICA1 (peptide sequence: GSTHTACSGPIDELLDMK, peptide start residue: 332) (UniProt Q05084)", "log2 fold change": -0.465}, {"target": "CAV1 (peptide sequence: EQGNIYKPNNK, peptide start residue: 20) (UniProt Q03135)", "log2 fold change": 0.301}, {"target": "PLCB2 (peptide sequence: EALAEYEAR, peptide start residue: 1122) (UniProt Q00722)", "log2 fold change": 0.125}, {"target": "AMPD2 (peptide sequence: HFPLDLR, peptide start residue: 110) (UniProt Q01433)", "log2 fold change": 0.106}, {"target": "KIF23 (peptide sequence: ENQMYGTNK, peptide start residue: 376) (UniProt Q02241)", "log2 fold change": 0.92}, {"target": "REL (peptide sequence: RPLFFQNLGIR, peptide start residue: 98) (UniProt Q04864)", "log2 fold change": 0.144}]}]}
